The assay deals with N-terminal FLAG epitope-tagged IpLITR 1.1b (1.1b^(WT CYT)) (channel catfish (Ictalurus punctatus)). Description: co-IP; AD293 cells co-expressing HA-2.6b^(ITAM CYT) and a FLAG-1.1b^CYT construct; receptors co-crosslinked with magnetic beads co-opsonized with α-HA mAb (0.32 μg/mL) and α-FLAG mAb (2.5 μg/mL), 8 min at 37 °C; lysis in 50 mM Tris-HCl, 150 mM NaCl, 1% Triton X-100, pH 8.0 on ice; beads isolated magnetically, washed, bound proteins immunoblotted. (In general: In western blotting, separated proteins are transferred to a membrane and probed.)

These results are taken from paper PMC7404264.

These are yes or no findings as the source states them, for the method shown. In cells and extracts the contact can be indirect.

B1: SH2 domain-containing inositol 5′-phosphatase 2 (SHIP-2) (enzyme, UniProt O15357 1-1258)
chain: MASACGAPGPGGALGSQAPSWYHRDLSRAAAEELLARAGRDGSFLVRDSESVAGAFALCVLYQKHVHTYRILPDGEDFLAVQTSQGVPVRRFQTLGELIGLYAQPNQGLVCALLLPVEGEREPDPPDDRDASDGEDEKPPLPPRSGSTSISAPTGPSSPLPAPETPTAPAAESAPNGLSTVSHDYLKGSYGLDLEAVRGGASHLPHLTRTLATSCRRLHSEVDKVLSGLEILSKVFDQQSSPMVTRLLQQQNLPQTGEQELESLVLKLSVLKDFLSGIQKKALKALQDMSSTAPPAPQPSTRKAKTIPVQAFEVKLDVTLGDLTKIGKSQKFTLSVDVEGGRLVLLRRQRDSQEDWTTFTHDRIRQLIKSQRVQNKLGVVFEKEKDRTQRKDFIFVSARKREAFCQLLQLMKNKHSKQDEPDMISVFIGTWNMGSVPPPKNVTSWFTSKGLGKTLDEVTVTIPHDIYVFGTQENSVGDREWLDLLRGGLKELTDLDYRPIAMQSLWNIKVAVLVKPEHENRISHVSTSSVKTGIANTLGNKGAVGVSFMFNGTSFGFVNCHLTSGNEKTARRNQNYLDILRLLSLGDRQLNAFDISLRFTHLFWFGDLNYRLDMDIQEILNYISRKEFEPLLRVDQLNLEREKHKVFLRFSEEEISFPPTYRYERGSRDTYAWHKQKPTGVRTNVPSWCDRILWKSYPETHIICNSYGCTDDIVTSDHSPVFGTFEVGVTSQFISKKGLSKTSDQAYIEFESIEAIVKTASRTKFFIEFYSTCLEEYKKSFENDAQSSDNINFLKVQWSSRQLPTLKPILADIEYLQDQHLLLTVKSMDGYESYGECVVALKSMIGSTAQQFLTFLSHRGEETGNIRGSMKVRVPTERLGTRERLYEWISIDKDEAGAKSKAPSVSRGSQEPRSGSRKPAFTEASCPLSRLFEEPEKPPPTGRPPAPPRAAPREEPLTPRLKPEGAPEPEGVAAPPPKNSFNNPAYYVLEGVPHQLLPPEPPSPARAPVPSATKNKVAITVPAPQLGHHRHPRVGEGSSSDEESGGTLPPPDFPPPPLPDSAIFLPPSLDPLPGPVVRGRGGAEARGPPPPKAHPRPPLPPGPSPASTFLGEVASGDDRSCSVLQMAKTLSEVDYAPAGPARSALLPGPLELQPPRGLPSDYGRPLSFPPPRIRESIQEDLAEEAPCLQGGRASGLGEAGMSAWLRAIGLERYEEGLVHNGWDDLEFLSDITEEDLEEAGVQDPAHKRLLLDTLQLSK
Regarding B1, the binding result is listed as “no binding”.
